{"source": "the supplement of paper PMC8728848", "binders": {"B1": {"name": "EUL D1A second (Oryza sativa) (protein)", "chain": "GAATACTIGGVPVHTVRVFSAAGEDYCLTVRNGTACLAPKNPRDDYQHWIKDMRHSNKIRDEEGYPAFALVNKVTGEAIKHSTGQGHPVKLVPYNPEYQDESVLWTESKDVGKGFRCIRMVNNIYLNFDAFHGDKDHGGIHDGTEIVLWKWCEGDNQRWKILPWILEQKLISEEDLNSAVDHHHHHH"}}, "assay_in_all_cases": "glycan array binding signal (z-score within array); higher = stronger binding", "details_in_all_cases": "glycan notation: IUPAC condensed, linker removed", "key": {"[1]": {"target": "Man(a1-2)Man(a1-3)[Man(a1-2)Man(a1-6)]Man(a1-6)[Man(a1-2)Man(a1-2)Man(a1-3)]Man", "summary_of_the_method": "(§1)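 The binding signal is a Z-score computed within each array and averaged over linkers. Arrays of the same protein sequence at different concentrations or buffers were also averaged together. Data originate from 3228 arrays in the Consortium for Functional Glycomics database, kept only where the protein sequence was available.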"}, "[2]": {"target": "Man(a1-2)Man(a1-3)[Man(a1-2)Man(a1-6)]Man(a1-6)[Man(a1-2)Man(a1-2)Man(a1-3)]Man(b1-4)GlcNAc(b1-4)GlcNAc", "summary_of_the_method": "as §1"}, "[3]": {"target": "Man(a1-2)Man(a1-3)[Man(a1-6)]Man(a1-6)[Man(a1-2)Man(a1-3)]Man(b1-4)GlcNAc(b1-4)GlcNAc", "summary_of_the_method": "as §1"}, "[4]": {"target": "Man(a1-2)Man(a1-6)[Man(a1-3)]Man(a1-6)[Man(a1-2)Man(a1-2)Man(a1-3)]Man", "summary_of_the_method": "as §1"}, "[5]": {"target": "Man(a1-2)Man(a1-6)[Man(a1-3)]Man(a1-6)[Man(a1-2)Man(a1-2)Man(a1-3)]Man(b1-4)GlcNAc(b1-4)GlcNAc", "summary_of_the_method": "as §1"}, "[6]": {"target": "Man(a1-3)[Man(a1-6)]Man", "summary_of_the_method": "as §1"}, "[7]": {"target": "Man(a1-3)[Man(a1-6)]Man(a1-6)[Man(a1-2)Man(a1-3)]Man(b1-4)GlcNAc(b1-4)GlcNAc", "summary_of_the_method": "as §1"}, "[8]": {"target": "Man(a1-3)[Man(a1-6)]Man(a1-6)[Man(a1-3)]Man", "summary_of_the_method": "as §1"}, "[9]": {"target": "Man(a1-3)[Man(a1-6)]Man(a1-6)[Man(a1-3)]Man(b1-4)GlcNAc(b1-4)GlcNAc", "summary_of_the_method": "as §1"}, "[10]": {"target": "Man(a1-3)[Man(a1-6)]Man(b1-4)GlcNAc(b1-4)GlcNAc", "summary_of_the_method": "as §1"}, "[11]": {"target": "Man(a1-3)[Man(a1-6)]Man(b1-4)GlcNAc(b1-4)[Fuc(a1-6)]GlcNAc", "summary_of_the_method": "as §1"}, "[12]": {"target": "Man(a1-6)Man", "summary_of_the_method": "as §1"}, "[13]": {"target": "Man(b1-4)GlcNAc", "summary_of_the_method": "as §1"}, "[14]": {"target": "MurNAc(b1-4)GlcNAc", "summary_of_the_method": "as §1"}, "[15]": {"target": "Neu5Ac(a2-3)Gal", "summary_of_the_method": "as §1"}, "[16]": {"target": "Neu5Ac(a2-3)Gal(b1-3)GalNAc", "summary_of_the_method": "as §1"}, "[17]": {"target": "Neu5Ac(a2-3)Gal(b1-3)GalNAc(b1-3)Gal(a1-4)Gal(b1-4)Glc", "summary_of_the_method": "as §1"}, "[18]": {"target": "Neu5Ac(a2-3)Gal(b1-3)GalNAc(b1-4)Gal(b1-4)Glc", "summary_of_the_method": "as §1"}, "[19]": {"target": "Neu5Ac(a2-3)Gal(b1-3)GalNAc(b1-4)[Neu5Ac(a2-3)]Gal(b1-4)Glc", "summary_of_the_method": "as §1"}, "[20]": {"target": "Neu5Ac(a2-3)Gal(b1-3)GalNAc(b1-4)[Neu5Ac(a2-8)Neu5Ac(a2-3)]Gal(b1-4)Glc", "summary_of_the_method": "as §1"}, "[21]": {"target": "Neu5Ac(a2-3)Gal(b1-3)GalNAc6S", "summary_of_the_method": "as §1"}, "[22]": {"target": "Neu5Ac(a2-3)Gal(b1-3)GlcNAc", "summary_of_the_method": "as §1"}, "[23]": {"target": "Neu5Ac(a2-3)Gal(b1-3)GlcNAc(b1-2)Man", "summary_of_the_method": "as §1"}, "[24]": {"target": "Neu5Ac(a2-3)Gal(b1-3)GlcNAc(b1-2)Man(a1-3)[GlcNAc(b1-4)][Neu5Ac(a2-3)Gal(b1-3)GlcNAc(b1-2)Man(a1-6)]Man(b1-4)GlcNAc(b1-4)GlcNAc", "summary_of_the_method": "as §1"}, "[25]": {"target": "Neu5Ac(a2-3)Gal(b1-3)GlcNAc(b1-2)Man(a1-3)[Neu5Ac(a2-3)Gal(b1-3)GlcNAc(b1-2)Man(a1-6)]Man(b1-4)GlcNAc(b1-4)GlcNAc", "summary_of_the_method": "as §1"}, "[26]": {"target": "Neu5Ac(a2-3)Gal(b1-3)GlcNAc(b1-2)[Neu5Ac(a2-3)Gal(b1-3)GlcNAc(b1-4)]Man(a1-6)[Neu5Ac(a2-3)Gal(b1-3)GlcNAc(b1-2)Man(a1-3)]Man(b1-4)GlcNAc(b1-4)GlcNAc", "summary_of_the_method": "as §1"}, "[27]": {"target": "Neu5Ac(a2-3)Gal(b1-3)GlcNAc(b1-3)Gal(b1-3)GlcNAc", "summary_of_the_method": "as §1"}, "[28]": {"target": "Neu5Ac(a2-3)Gal(b1-3)GlcNAc(b1-3)Gal(b1-4)GlcNAc", "summary_of_the_method": "as §1"}, "[29]": {"target": "Neu5Ac(a2-3)Gal(b1-3)GlcNAc(b1-3)GalNAc", "summary_of_the_method": "as §1"}, "[30]": {"target": "Neu5Ac(a2-3)Gal(b1-3)GlcNAc(b1-6)GalNAc", "summary_of_the_method": "as §1"}, "[31]": {"target": "Neu5Ac(a2-3)Gal(b1-3)GlcNAc6S", "summary_of_the_method": "as §1"}, "[32]": {"target": "Neu5Ac(a2-3)Gal(b1-3)[Fuc(a1-4)]GlcNAc", "summary_of_the_method": "as §1"}, "[33]": {"target": "Neu5Ac(a2-3)Gal(b1-3)[Fuc(a1-4)]GlcNAc(b1-3)Gal(b1-3)[Fuc(a1-4)]GlcNAc", "summary_of_the_method": "as §1"}, "[34]": {"target": "Neu5Ac(a2-3)Gal(b1-3)[Fuc(a1-4)]GlcNAc(b1-3)Gal(b1-4)[Fuc(a1-3)]GlcNAc", "summary_of_the_method": "as §1"}, "[35]": {"target": "Neu5Ac(a2-3)Gal(b1-3)[GlcNAc(b1-6)]GalNAc", "summary_of_the_method": "as §1"}, "[36]": {"target": "Neu5Ac(a2-3)Gal(b1-3)[Neu5Ac(a2-6)]GalNAc", "summary_of_the_method": "as §1"}, "[37]": {"target": "Neu5Ac(a2-3)Gal(b1-3)[Neu5Ac(a2-6)]GlcNAc(b1-3)[Fuc(a1-3)[Gal(b1-4)]GlcNAc(b1-6)]Gal(b1-4)Glc", "summary_of_the_method": "as §1"}, "[38]": {"target": "Neu5Ac(a2-3)Gal(b1-3)]Neu5Ac(a2-3)Gal(b1-4)]GlcNAc", "summary_of_the_method": "as §1"}, "[39]": {"target": "Neu5Ac(a2-3)Gal(b1-4)Glc", "summary_of_the_method": "as §1"}, "[40]": {"target": "Neu5Ac(a2-3)Gal(b1-4)GlcNAc", "summary_of_the_method": "as §1"}, "[41]": {"target": "Neu5Ac(a2-3)Gal(b1-4)GlcNAc(b1-2)Man", "summary_of_the_method": "as §1"}, "[42]": {"target": "Neu5Ac(a2-3)Gal(b1-4)GlcNAc(b1-2)Man(a1-3)[GlcNAc(b1-4)][Neu5Ac(a2-3)Gal(b1-4)GlcNAc(b1-2)Man(a1-6)]Man(b1-4)GlcNAc(b1-4)GlcNAc", "summary_of_the_method": "as §1"}, "[43]": {"target": "Neu5Ac(a2-3)Gal(b1-4)GlcNAc(b1-2)Man(a1-3)[Neu5Ac(a2-3)Gal(b1-4)GlcNAc(b1-2)Man(a1-6)]Man(b1-4)GlcNAc(b1-4)GlcNAc", "summary_of_the_method": "as §1"}, "[44]": {"target": "Neu5Ac(a2-3)Gal(b1-4)GlcNAc(b1-2)Man(a1-3)[Neu5Ac(a2-3)Gal(b1-4)GlcNAc(b1-2)Man(a1-6)]Man(b1-4)GlcNAc(b1-4)[Fuc(a1-6)]GlcNAc", "summary_of_the_method": "as §1"}, "[45]": {"target": "Neu5Ac(a2-3)Gal(b1-4)GlcNAc(b1-2)Man(a1-3)[Neu5Ac(a2-6)Gal(b1-4)GlcNAc(b1-2)Man(a1-6)]Man(b1-4)GlcNAc(b1-4)GlcNAc", "summary_of_the_method": "as §1"}}, "note": "The other results are listed elsewhere or left out."}
{"binder": "B1", "values": [{"measurement": "glycan array binding signal (z-score)", "setting": "[1]", "value": -0.985}, {"measurement": "glycan array binding signal (z-score)", "setting": "[2]", "value": 1.93}, {"measurement": "glycan array binding signal (z-score)", "setting": "[3]", "value": -0.104}, {"measurement": "glycan array binding signal (z-score)", "setting": "[4]", "value": 0.706}, {"measurement": "glycan array binding signal (z-score)", "setting": "[5]", "value": -0.175}, {"measurement": "glycan array binding signal (z-score)", "setting": "[6]", "value": -1.19}, {"measurement": "glycan array binding signal (z-score)", "setting": "[7]", "value": -0.941}, {"measurement": "glycan array binding signal (z-score)", "setting": "[8]", "value": -0.871}, {"measurement": "glycan array binding signal (z-score)", "setting": "[9]", "value": 0.115}, {"measurement": "glycan array binding signal (z-score)", "setting": "[10]", "value": -0.971}, {"measurement": "glycan array binding signal (z-score)", "setting": "[11]", "value": 0.718}, {"measurement": "glycan array binding signal (z-score)", "setting": "[12]", "value": -0.62}, {"measurement": "glycan array binding signal (z-score)", "setting": "[13]", "value": -0.316}, {"measurement": "glycan array binding signal (z-score)", "setting": "[14]", "value": -0.391}, {"measurement": "glycan array binding signal (z-score)", "setting": "[15]", "value": -0.835}, {"measurement": "glycan array binding signal (z-score)", "setting": "[16]", "value": 0.973}, {"measurement": "glycan array binding signal (z-score)", "setting": "[17]", "value": -0.441}, {"measurement": "glycan array binding signal (z-score)", "setting": "[18]", "value": -1.04}, {"measurement": "glycan array binding signal (z-score)", "setting": "[19]", "value": 1.45}, {"measurement": "glycan array binding signal (z-score)", "setting": "[20]", "value": 1.87}, {"measurement": "glycan array binding signal (z-score)", "setting": "[21]", "value": 0.821}, {"measurement": "glycan array binding signal (z-score)", "setting": "[22]", "value": -0.337}, {"measurement": "glycan array binding signal (z-score)", "setting": "[23]", "value": 3.06}, {"measurement": "glycan array binding signal (z-score)", "setting": "[24]", "value": -2.14}, {"measurement": "glycan array binding signal (z-score)", "setting": "[25]", "value": 0.852}, {"measurement": "glycan array binding signal (z-score)", "setting": "[26]", "value": 0.413}, {"measurement": "glycan array binding signal (z-score)", "setting": "[27]", "value": -0.077}, {"measurement": "glycan array binding signal (z-score)", "setting": "[28]", "value": -1.25}, {"measurement": "glycan array binding signal (z-score)", "setting": "[29]", "value": 1.2}, {"measurement": "glycan array binding signal (z-score)", "setting": "[30]", "value": -0.587}, {"measurement": "glycan array binding signal (z-score)", "setting": "[31]", "value": -0.896}, {"measurement": "glycan array binding signal (z-score)", "setting": "[32]", "value": 0.596}, {"measurement": "glycan array binding signal (z-score)", "setting": "[33]", "value": 1.27}, {"measurement": "glycan array binding signal (z-score)", "setting": "[34]", "value": 0.637}, {"measurement": "glycan array binding signal (z-score)", "setting": "[35]", "value": 0.412}, {"measurement": "glycan array binding signal (z-score)", "setting": "[36]", "value": 0.217}, {"measurement": "glycan array binding signal (z-score)", "setting": "[37]", "value": 1.26}, {"measurement": "glycan array binding signal (z-score)", "setting": "[38]", "value": 0.297}, {"measurement": "glycan array binding signal (z-score)", "setting": "[39]", "value": 0.304}, {"measurement": "glycan array binding signal (z-score)", "setting": "[40]", "value": -0.808}, {"measurement": "glycan array binding signal (z-score)", "setting": "[41]", "value": -0.036}, {"measurement": "glycan array binding signal (z-score)", "setting": "[42]", "value": -0.287}, {"measurement": "glycan array binding signal (z-score)", "setting": "[43]", "value": -0.033}, {"measurement": "glycan array binding signal (z-score)", "setting": "[44]", "value": -0.892}, {"measurement": "glycan array binding signal (z-score)", "setting": "[45]", "value": 0.14}]}
